# Laboratory results reported in patent publication US6380193B1, “Fused tricyclic compounds, methods and compositions for inhibiting PARP activity” (Guilford Pharmaceuticals Inc., priority 1998, dated 2002).
# Legend:
# male Long-Evans rats [1] = experiment: Arterial blood gases and mean arterial blood pressure in the focal cerebral ischemia model; assay type: in vivo, rat; settings: 30 minutes after MCA occlusion
# male Long-Evans rats [2] = experiment: Laser Doppler microvascular blood flow in right parietal cortex during occlusion; assay type: in vivo, rat; settings: control 20.8±7.7%
smiles,measurement,setting,value
"O=C1NCCc2c(OCCCCN3CCCCC3)cccc21 [DPQ, 3,4-dihydro-5-[4-(1-piperidinyl)-butoxy]-1(2H)-isoquinolinone]",pH (arterial),male Long-Evans rats [1]; 5 mg/kg,7.36 ± 0.02
same,pH (arterial),male Long-Evans rats [1]; 10 mg/kg,7.34 ± 0.03
same,pH (arterial),male Long-Evans rats [1]; 20 mg/kg,7.35 ± 0.23
same,pH (arterial),male Long-Evans rats [1]; 40 mg/kg,7.33 ± 0.024
same,"relative blood flow in the right parietal cortex, % of the baseline",male Long-Evans rats [2]; 5 mg/kg,18.7±7.4%
same,"relative blood flow in the right parietal cortex, % of the baseline",male Long-Evans rats [2]; 10 mg/kg,21.4±7.7%
same,"relative blood flow in the right parietal cortex, % of the baseline",male Long-Evans rats [2]; 40 mg/kg,19.3±11.2%
